Results as given in PMC4865869.
Read-outs that look alike come from different tables or passages of the source. These are yes or no findings as the source states them, for the method shown. Binding seen in cells or lysates may run through a third protein. These calls come from enrichment with a bait or labelling near it, and not all partners need be listed. Tags and fused reporters may be left off the sequences shown. Blank lines part the entries; values can stand above or below the molecule they belong to.

The chains behind the UniProt entries cited, without tags or fusion partners.
UniProt P18613: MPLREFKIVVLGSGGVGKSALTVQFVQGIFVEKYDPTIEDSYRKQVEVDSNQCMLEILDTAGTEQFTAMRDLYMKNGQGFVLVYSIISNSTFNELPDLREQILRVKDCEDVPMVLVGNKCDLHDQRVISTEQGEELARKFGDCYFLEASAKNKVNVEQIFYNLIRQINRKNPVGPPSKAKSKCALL

Tests used:
[1] = molecular target: T1, His/Flag-tagged Pianissimo (Dictyostelium) (UniProt O77203); assay: affinity purification with mass spectrometry; sequential His-Flag purification of HF-Pia from developed piaA null cells stimulated with 10 uM cAMP for 10 sec; wild-type cells as control
T1 sequence: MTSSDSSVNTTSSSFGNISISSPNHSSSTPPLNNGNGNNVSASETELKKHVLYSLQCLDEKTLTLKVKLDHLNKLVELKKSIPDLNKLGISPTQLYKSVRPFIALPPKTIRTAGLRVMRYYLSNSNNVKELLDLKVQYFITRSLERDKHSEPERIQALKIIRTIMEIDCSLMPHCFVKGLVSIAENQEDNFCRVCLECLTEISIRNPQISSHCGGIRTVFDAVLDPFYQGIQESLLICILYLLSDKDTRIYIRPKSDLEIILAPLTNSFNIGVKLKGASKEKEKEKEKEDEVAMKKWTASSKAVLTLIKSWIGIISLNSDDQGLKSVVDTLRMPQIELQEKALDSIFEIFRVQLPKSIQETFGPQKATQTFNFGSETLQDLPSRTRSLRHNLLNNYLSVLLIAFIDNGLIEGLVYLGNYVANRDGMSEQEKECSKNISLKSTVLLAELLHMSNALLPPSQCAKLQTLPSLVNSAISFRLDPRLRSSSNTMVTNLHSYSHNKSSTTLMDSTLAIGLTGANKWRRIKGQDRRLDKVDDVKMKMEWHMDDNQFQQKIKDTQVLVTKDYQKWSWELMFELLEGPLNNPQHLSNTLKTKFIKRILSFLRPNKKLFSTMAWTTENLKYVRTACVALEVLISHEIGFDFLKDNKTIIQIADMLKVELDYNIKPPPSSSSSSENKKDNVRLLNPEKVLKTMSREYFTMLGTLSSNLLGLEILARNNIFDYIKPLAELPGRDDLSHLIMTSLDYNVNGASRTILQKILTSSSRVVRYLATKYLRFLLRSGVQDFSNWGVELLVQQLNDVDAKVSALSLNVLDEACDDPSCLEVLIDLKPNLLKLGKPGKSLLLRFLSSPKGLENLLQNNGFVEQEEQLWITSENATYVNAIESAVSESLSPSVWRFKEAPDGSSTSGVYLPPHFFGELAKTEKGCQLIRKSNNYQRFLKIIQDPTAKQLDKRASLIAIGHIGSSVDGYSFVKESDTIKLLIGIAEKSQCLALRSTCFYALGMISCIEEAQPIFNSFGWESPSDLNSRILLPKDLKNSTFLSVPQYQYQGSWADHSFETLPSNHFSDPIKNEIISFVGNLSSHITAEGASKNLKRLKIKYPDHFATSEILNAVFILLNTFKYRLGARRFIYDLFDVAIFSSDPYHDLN

[2] = molecular target: T1, His/Flag-tagged Pianissimo (Dictyostelium); assay: as above; remark: listed apart in the source

Molecule: Formin A (Dictyostelium)
binding [1]: binds

Molecule: Rap1 (small GTPase), co-purified with HF-Pia (from UniProt P18613 1-186)
binding [1]: binds

B2: RabC (protein, UniProt P34143 1-196)
chain: MEEEILYKIILVGESGVGKSSILVRFTDNTFSQHFAPTLGVDFNVKTIRNKETGQTVKLQLWDTAGQERFKSITQTFYRGSHGVIVVYDVTDPKSFERCKNWVEDINQYTQDGMIIILVGNKSDMVAQRKVTFEQGQEMAEQLKTKFLEVSAKENNGVTQVFDLLVQDIEATMKNSKVAQNQLNLNSEVGQKRGCC
binding [2]: binds

More lines, now with the values ahead:

binding [1]: binds
Molecule: Rac1A (from UniProt P34144 1-194)

binding [2]: binds
B1: Rab11A (protein, UniProt P36412 1-214)
chain: MTSKGSQEEYDYLYKIVLIGDSGVGKSNLLSRFTRNEFSLETKSTIGVEFATRTIQTEGKTIKAQVWDTAGQERYRAITSAYYRGAVGALLVYDIAKQATYKSVERWILELRENADRNIEIMLVGNKSDLRHLREVSTDEAKEFSEKHKLTFIETSALDSSNVELAFQNILTQIYHIMSRPSHSTGPQTTIDSNTETIILPTTSEPPAAKSGCC
